Some of the results follow. Further columns of the screen follow, without active or inactive calls. The list favours compounds with an active or inconclusive main result. The note in brackets gives the kind of curve behind each potency; many fits are weak.
Assay: qHTS Assay for Lipid Storage Modulators in Drosophila S3 Cells;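 on cell number change: cells counted by Cell Tracker Red CMTPX staining in the red channel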
Conditions: BODIPY lipid droplet fluorescence, 18-24 h; for cell number change: measured here: cell count max response, cells fed with added oleic acid
In short: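 Laser-scanning cytometry quantifies lipid droplet accumulation (500–530 nm total intensity; droplet/cell object ratio) in oleic acid-fed (400 uM added) Drosophila S3 cells treated with a concentration series. 20 uM Triacsin C defined 100% inhibition.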

[1] = measured here: lipid fluorescence (Fed channel) AC50, cells fed with added oleic acid
[2] = measured here: cell number channel AC50, cells fed with added oleic acid

Structure (SMILES) | cell number change [%] | AC50 [1] | AC50 [2]
COc1ccccc1CNC(=O)C1CCN(S(C)(=O)=O)CC1 | 6.89 | 0.731 µM [rising, single point] | –
CCCC(=O)N(CCN1CCOCC1)c1nc2c(C)ccc(C)c2s1 | -19.4 | 5.8 µM [rising, single point] | –
Cc1nc2ccccc2n1CCN1CCOCC1 | 5.01 | – | –
OC(c1ccccc1)(c1ccccc1)C1CCN(C(=S)NC2CCCC2)CC1 | -8.46 | – | 0.13 µM [falling, full curve, poor fit]
COCCOc1ccc(C(F)(F)F)cc1Nc1nc2ccccc2o1 | 15 | 2.91 µM [rising, partial curve] | –
COc1ccc(C(=O)NCCN2CCCC2)cc1 | 7.41 | 29.1 µM [rising, single point] | –
CCN(CC)S(=O)(=O)c1ccc2[nH]c(=O)cc(C(=O)Nc3ccccc3N3CCOCC3)c2c1 | -35.6 | – | 0.0461 µM [falling, full curve]
COc1ccc(N/C=C2\CCOC2=O)cc1 | -7.36 | 0.058 µM [falling, full curve] | –
CC(NC(=O)c1ccco1)c1ccc2c(c1)OCO2 (stereo unspecified) | 6.49 | 16.4 µM [falling, single point] | –
COc1ccc(Nc2nc3c([nH]2)c(=O)[nH]c(=O)n3C)cc1 | -6.02 | 0.291 µM [falling, full curve, poor fit] | –
COc1ccc(C(=O)N2CCCC(c3nc(-c4ccc(C)o4)no3)C2)cc1OC (stereo unspecified) | 8.97 | 6.51 µM [rising, single point] | –
CN(CC(=O)NCc1ccc2c(c1)OCO2)S(=O)(=O)c1ccc(Br)s1 | 33.8 | 8.2 µM [rising, partial curve] | 0.206 µM [rising, full curve, poor fit]
Cc1ccc(CC(=O)Nc2ccncc2)cc1 | -60.4 | 29.1 µM [falling, single point] | 8.2 µM [falling, partial curve]
COc1cc(S(=O)(=O)n2nc(C)cc2C)ccc1Cl | 16.6 | 2.06 µM [rising, partial curve, poor fit] | –
Cc1ccc(-n2c3nc(=O)[nH]c(=O)c-3cc3cc([N+](=O)[O-])ccc32)cc1C | -24.3 | 2.59 µM [falling, full curve] | –
O=C(CS(=O)(=O)c1ccc(F)cc1)NCCS(=O)(=O)c1ccccc1 | -26.4 | 1.84 µM [rising, partial curve] | –
Cc1cc2cc(C)c3nnc(SCC(=O)Nc4ccc(S(=O)(=O)N5CCCCC5)cc4)n3c2cc1C | -15.4 | 8.2 µM [falling, partial curve] | –
N#CC1(NC(=O)CN2CCN(S(=O)(=O)c3ccccc3F)CC2)CCCC1 | 2.34 | 29.1 µM [rising, single point] | –
Cc1ccc(CN2C3=NCCN3c3ccccc32)cc1 | -7.01 | 0.00517 µM [falling, full curve, poor fit] | –
OCC12COC(c3ccccc3)N1C(c1ccccc1)OC2 (stereo unspecified) | -9.74 | 32.6 µM [rising, single point] | –
CCOc1ccc(CC(=O)NCCc2cnc[nH]2)cc1 | 14.2 | – | –

Complete entries as entered above:
CCOc1ccc(CC(=O)NCCc2cnc[nH]2)cc1 is listed as cell number change [%]: 14.2
COc1ccc(C(=O)NCCN2CCCC2)cc1 is listed as cell number change [%]: 7.41; AC50 [1]: 29.1 µM [rising, single point]

(further entries)

Structure (SMILES) | cell number change [%] | AC50 [1] | AC50 [2]
O=C(CSc1nnc(Cc2cc(=O)[nH]c(=O)[nH]2)n1-c1ccc(Cl)cc1)NC1CCCC1 | 9.65 | – | –
Cc1cccc(NS(=O)(=O)c2nnc(NC(=O)c3ccc(C)c(C)c3)s2)c1 | 5.39 | 6.51 µM [rising, partial curve, poor fit] | –
CCCCn1nnnc1SCC(=O)NCc1ccco1 | – | 11.6 µM [falling, partial curve] | –
Cc1nnc(OCC(=O)NCCC2=CCCCC2)c2ccccc12 | 50 | – | 0.0259 µM [rising, full curve]
CCOC(=O)c1sc2nc(C)nc(NC3CCC(O)CC3)c2c1C (stereo unspecified) | -4.5 | 0.58 µM [falling, single point] | –
COc1ccccc1-n1nnnc1SCC(=O)NC(=O)Cc1ccccc1 | -46 | – | 29.1 µM [falling, single point]
Cc1ccc(-c2nnc(OCCN3CCOCC3)c3ccccc23)cc1 | -3.22 | 29.1 µM [rising, single point] | –
O=C(OC(c1ccccc1)c1nccc2ccccc12)c1cc([N+](=O)[O-])cc([N+](=O)[O-])c1 (stereo unspecified) | 10.8 | 0.103 µM [rising, full curve] | –
O=C(N/N=C/c1ccc(OC(=O)c2cccc(Br)c2)cc1)c1cccnc1 | 20.5 | – | –
O/N=C/c1ccc(OCc2ccccc2)c(Br)c1 | 5.51 | 1.84 µM [rising, partial curve, poor fit] | –
COc1ccccc1C(=O)N/C(=C\c1ccc(Br)cc1)C(=O)N1CCCC1 | 10.8 | – | –
O=C(COC(=O)CC(c1ccccc1)c1ccccc1)NCc1ccc(Cl)cc1 | -25.8 | 2.91 µM [falling, partial curve, poor fit] | 3.66 µM [falling, single point]
O=C(CCN1CCCCCC1)Nc1ccc(F)c(F)c1 | 7.62 | – | –
CC(C)Oc1ccc(/C(O)=C2/C(=O)C(=O)N(CCN3CCOCC3)C2c2ccccc2)cc1 (stereo unspecified) | – | – | 6.51 µM [falling, partial curve, poor fit]
Cc1cccc(OCC(=O)NNS(=O)(=O)c2ccccc2F)c1 | 20.9 | 18.4 µM [rising, partial curve] | 6.51 µM [rising, partial curve]
O=C1C2C3CC(C(Br)C3Br)C2C(=O)N1CC1CCCO1 (stereo unspecified) | – | 0.164 µM [falling, full curve] | –
O=C(Nc1ccccc1)c1ccccc1OCc1cccc([N+](=O)[O-])c1 | 12.2 | 0.651 µM [rising, partial curve] | –
CCOc1ccc(C2C(C(=O)Nc3ccc(F)cc3)=C(C)Nc3nc(CCCO)nn32)cc1 (stereo unspecified) | -25.4 | 2.91 µM [falling, single point] | –
O=C(COc1ccccc1O)c1cccs1 | 3.13 | 29.1 µM [falling, single point] | –
CC[C@@]12C(=O)N(c3ccc(OC)cc3)C(=O)N1[C@H](c1ccc(Cl)cc1)[C@@H]1C(=O)N(C3CCCCC3)C(=O)[C@@H]12 | 32 | – | 16.4 µM [rising, partial curve, poor fit]
O=C(O)CSc1nnc(CNc2ccccc2Cl)n1-c1ccccc1 | -7.74 | 23.1 µM [falling, partial curve] | –

Structure (SMILES) | cell number change [%] | AC50 [1] | AC50 [2]
O=C(c1cc2nc(-c3ccco3)cc(C(F)(F)F)n2n1)N1CCN(Cc2ccccc2)CC1 | -0.54 | 0.651 µM [falling, single point] | –
CC(C)(C)NC(=S)NC(=O)C12CC3CCC(CC(C3)C1)C2 | -33.8 | 16.4 µM [falling, single point] | 29.1 µM [falling, single point]
CCO/C=C1/C(=O)N(CC)c2ccccc21 | -20.3 | 0.411 µM [falling, full curve] | –
O=C(/C=C/c1ccc2c(c1)OCO2)Nc1nc(-c2ccc(F)cc2)cs1 | – | 2.59 µM [rising, partial curve] | –
c1ccc(-c2nnnn2-c2ccccc2)cc1 | 6.67 | – | –
Cc1nc(C(=O)Nc2ccccc2)sc1C1(C)CC(c2cccnc2)=NO1 (stereo unspecified) | 14.4 | 0.92 µM [rising, full curve] | –
Cc1ccc(S(=O)(=O)N(C)C(C)CCc2ccco2)cc1 (stereo unspecified) | -6.22 | 1.64 µM [rising, single point] | –
CS(=O)(=O)N(CC(=O)NC1CCCCCC1)Cc1ccccc1 | 1.04 | 3.66 µM [falling, partial curve] | –
CCOc1ccc(C2C(C#N)=C(N)Oc3cc(C)n(Cc4ccco4)c(=O)c32)cc1OC (stereo unspecified) | 4.26 | 1.16 µM [rising, full curve] | –
COc1ccc(C2(C)NC(=O)N(CC3CCCCC3)C2=O)cc1 (stereo unspecified) | – | – | 6.51 µM [rising, single point]
COc1c(S(=O)(=O)NCCN2CCOCC2)ccc(Cl)c1Cl | -4.57 | – | 1.03 µM [falling, full curve, poor fit]
O=c1c2ccccc2nc(/C=C/c2ccc(O)cc2)n1CCc1ccccc1 | – | – | 6.51 µM [rising, single point]
CC1(CCc2ccccc2)NC(=S)N(c2ccc(Cl)cc2)N1 (stereo unspecified) | 6.51 | 25.9 µM [rising, partial curve, poor fit] | –
CC(=O)c1ccc(NC(=O)C2=CC(c3cccs3)=NS(=O)(=O)N2C)cc1 | 12.5 | – | –
Cc1cccc(/C=N/Nc2cc(N3CCOCC3)nc(N3CCOCC3)n2)c1 | – | 9.2 µM [rising, partial curve, poor fit] | –
O=[N+]([O-])c1ccc(CSc2nnc(SCc3ccccc3)s2)cc1 | -15.6 | 8.2 µM [rising, partial curve, poor fit] | 0.461 µM [rising, single point]
O=C(CSc1ccccn1)Nc1ccc2c(c1)OCCO2 | 41 | 6.51 µM [falling, single point] | 6.51 µM [rising, partial curve, poor fit]
O=C1CCC/C(=N\NC(=O)NC2CCCCC2)C1 | 4.71 | – | 0.1 µM [falling, partial curve, poor fit]
CC(=O)Nc1ccc(S(=O)(=O)NC(C)C(=O)OCC(=O)NC2CCCC2)cc1 (stereo unspecified) | -35.5 | 1.46 µM [falling, full curve] | 3.66 µM [falling, full curve]
CC(=O)Nc1ccc2c(c1)ncn2-c1ccccc1 | -16.8 | – | –

Source: PubChem BioAssay AID2685 (National Center for Advancing Translational Sciences (NCATS), 2010)
